The values that follow come from paper PMC4682051.

Sequences and labels used below:
T1: CDC42EP4 (mouse (endogenous in cerebellum)) (UniProt Q9JM96)
T1 sequence: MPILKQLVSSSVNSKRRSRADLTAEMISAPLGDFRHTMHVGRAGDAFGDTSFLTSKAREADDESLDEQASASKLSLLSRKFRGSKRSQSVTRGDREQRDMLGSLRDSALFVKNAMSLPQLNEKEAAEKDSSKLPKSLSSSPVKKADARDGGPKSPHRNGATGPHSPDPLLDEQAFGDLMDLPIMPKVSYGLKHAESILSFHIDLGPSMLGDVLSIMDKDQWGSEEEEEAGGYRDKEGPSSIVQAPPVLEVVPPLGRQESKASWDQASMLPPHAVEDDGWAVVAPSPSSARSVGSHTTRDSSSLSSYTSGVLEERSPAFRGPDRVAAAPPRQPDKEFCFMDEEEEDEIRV

T2: SEPT4 (mouse (endogenous in cerebellum)) (UniProt P28661)
T2 sequence: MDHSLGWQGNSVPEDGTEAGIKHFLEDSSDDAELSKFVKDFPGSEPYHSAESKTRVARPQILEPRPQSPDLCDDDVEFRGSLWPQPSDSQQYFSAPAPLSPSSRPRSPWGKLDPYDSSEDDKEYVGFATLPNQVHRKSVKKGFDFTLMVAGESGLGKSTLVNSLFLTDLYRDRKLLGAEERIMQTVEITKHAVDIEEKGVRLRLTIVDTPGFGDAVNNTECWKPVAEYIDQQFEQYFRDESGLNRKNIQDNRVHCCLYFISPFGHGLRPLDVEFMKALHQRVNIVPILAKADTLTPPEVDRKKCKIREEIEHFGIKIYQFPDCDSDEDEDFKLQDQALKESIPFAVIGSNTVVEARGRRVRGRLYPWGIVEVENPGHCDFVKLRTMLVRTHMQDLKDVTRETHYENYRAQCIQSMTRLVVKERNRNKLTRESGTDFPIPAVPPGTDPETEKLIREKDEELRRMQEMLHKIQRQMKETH

B1: SEPT4 (protein, UniProt P28661 1-478)
chain: T2 sequence
B2: GLAST (protein, UniProt P56564 1-543)
chain: MTKSNGEEPRMGGRMERLQQGVRKRTLLAKKKVQSLTKEDVKSYLFRNAFVLLTVTAVIVGTILGFALRPYKMSYREVKYFSFPGELLMRMLQMLVLPLIISSLVTGMAALDSKASGKMGMRAVVYYMTTTIIAVVIGIIIVIIIHPGKGTKENMYREGKIVQVTAADAFLDLIRNMFPPNLVEACFKQFKTSYEKRSFKVPIQSNETLLGAVINNVSEAMETLTRIREEMVPVPGSVNGVNALGLVVFSMCFGFVIGNMKEQGQALREFFDSLNEAIMRLVAVIMWYAPLGILFLIAGKIVEMEDMGVIGGQLAMYTVTVIVGLLIHAVIVLPLLYFLVTRKNPWVFIGGLLQALITALGTSSSSATLPITFKCLEENNGVDKRITRFVLPVGATINMDGTALYEALAAIFIAQVNNFDLNFGQIITISITATAASIGAAGIPQAGLVTMVIVLTSVGLPTDDITLIIAVDWFLDRLRTTTNVLGDSLGAGIVEHLSRHELKNRDVEMGNSVIEENEMKKPYQLIAQDNEPEKPVADSETKM
B3: SEPT2 (protein, UniProt P42208 1-361)
chain: MSKQQPTQFINPETPGYVGFANLPNQVHRKSVKKGFEFTLMVVGESGLGKSTLINSLFLTDLYPERIIPGAAEKIERTVQIEASTVEIEERGVKLRLTVVDTPGYGDAINCRDCFKTIISYIDEQFERYLHDESGLNRRHIIDNRVHCCFYFISPFGHGLKPLDVAFMKAIHNKVNIVPVIAKADTLTLKERERLKKRILDEIEEHSIKIYHLPDAESDEDEDFKEQTRLLKASIPFSVVGSNQLIEAKGKKVRGRLYPWGVVEVENPEHNDFLKLRTMLITHMQDLQEVTQDLHYENFRSERLKRGGRKVENEDMNKDQILLEKEAELRRMQEMIARMQAQMQMQMQGGDSDSGALGQHV
B4: SEPT7 (protein, UniProt O55131 1-436)
chain: MSVSARSAAAEERSVNCGTMAQPKNLEGYVGFANLPNQVYRKSVKRGFEFTLMVVGESGLGKSTLINSLFLTDLYSPEYPGPSHRIKKTVQVEQSKVLIKEGGVQLLLTIVDTPGFGDAVDNSNCWQPVIDYIDSKFEDYLNAESRVNRRQMPDNRVQCCLYFIAPSGHGLKPLDIEFMKRLHEKVNIIPLIAKADTLTPEECQQFKKQIMKEIQEHKIKIYEFPETDDEEENKLVKKIKDRLPLAVVGSNTIIEVNGKRVRGRQYPWGVAEVENGEHCDFTILRNMLIRTHMQDLKDVTNNVHYENYRSRKLAAVTYNGVDNNKNKGQLTKSPLAQMEEERREHVAKMKKMEMEMEQVFEMKVKEKVQKLKDSEAELQRRHEQMKKNLEAQHKELEEKRRQFEEEKANWEAQQRILEQQNSSRTLEKNKKKGKIF

Results are given in words; binding and its absence hold for the method and conditions named. Binding seen in cells or lysates may run through a third protein. Some binding calls cover weakened binding; strength is not graded here.

In one experiment the target is T1, CDC42EP4 (mouse (endogenous in cerebellum)). Description: co-IP; whole cerebella of WT and Cdc42ep4-/- (KO) mice lysed in buffer A' (0.2 M Tris-HCl pH 7.35, 0.3 M NaCl, 0.2% SDS, 0.2% Triton X-100, 0.2% sodium deoxycholate, 20 mM 2-mercaptoethanol); anti-CDC42EP4 or anti-SEPT4 on protein A beads, nonimmune rabbit IgG as control; immunoblot. For orientation: A western blot detects proteins with antibodies after separation by electrophoresis.
B1: the binding result is “binds”.

With B2, the binding result is reported as “binds”.

B3: the binding entry is listed as “binds”.

For B4, the binding result is recorded as “binds”.

The next experiment addresses T2, SEPT4 (mouse (endogenous in cerebellum)). The experiment is described as above.
On to B2, for which the binding entry was “binds”.

For B3, the binding result is reported as “binds”.

With B4, the binding entry is listed as “binds”.
